The campaign covered roughly 53,000 sequences. About 3,700 (7%) were called active.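 How the source made its calls: active means gene knockdowns whose robust z-score for IL-1 alpha signal is at least 2 or at most -2, so actives lie on both sides; inactive means the rest.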 Some of the results follow.

This assay can be described thus: Components of the Cytosolic LPS Sensing Pathway: Gene Identification via Genome-wide siRNA Screen.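 Further: robust z of the log signal after scaling to non-targeting control siRNA wells of the plate.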 The note with it: RAW264.7 macrophages, IL-1a HTRF, actives lie on both sides, screened at 100 nM (by protocol), cells primed 5 h with Pam3CSK4 first. A digest of the protocol:
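Using IL-1a HTRF as read-out, the screen measured release from RAW264.7 cells after 48h siRNA knockdown (100 nM), 5 h Pam3CSK4 priming and 24 h cytosolic LipidA. Values were expressed relative to negative-control wells as robust z-scores.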
UGCACUGAGGAAUAAGGACTT against Olfr111: the z-score is inactive: 0.225.
For GGUGUAAUUGCCUUGAAGGTT against Il25 the value was inactive: 0.868; for GGAAAUCUAAUGCACUUACTT against Gsdma3, inactive: 0.138; for “CCCUAUCCUAAAAGCAGACTT against E430018J23Rik”, inactive: -0.184.
GGCCAUCAGUGUGGAAUGUTT against BC004004: the z-score was inactive: -0.19.
To GGAUCUUGAUCCACAUCUCTT against Padi6 belongs active: -2.47; to GGUAAAAUCACGCAGUAAATT against Ppp1r3a, inactive: -0.56.
For GGAAUAUCCGUAAUAACUATT against Grin2b, the z-score is active: 2.82.
To GGAGAUUUUGAUGAGCAGATT against Gpatch3 belongs inactive: -0.885; to GGAAAAGGCCAAAAGCUGUTT against Rnd1, inactive: -0.958; to GGGCUGUGUAUCAAAACAUTT against Sft2d1, inactive: -1.96.
As to GGCGGACGUGAAGAACUUGTT against Letmd1, the z-score was inactive: 1.28.
GCUCCAGGUCCUUAGAAUATT against Me1: the z-score is inactive: 0.255.
For GGAAAAGAUAACUCAGACATT against Hrg the value was inactive: 0.727.
To GCUUUUGUGACUCUGCUGATT against Raver1 belongs inactive: -1.41; to GGUAGAAGCUGUCUUCAGATT against Mrps30, inactive: -0.311.
For GGAGGAAGAUCUUUAAUGUTT against Gm4793 the value was inactive: 0.69; for GGAACACACUUUUACCAUUTT against Clstn3, inactive: 0.574.
With GCUCAACUUUCGAAUGAACTT against Tmem100, the z-score is inactive: 0.479.
In the case of CCACUAGCUAUCUCAUACCTT against Tktl1, the z-score is inactive: -0.0025.
To GGUCAUGUCCAUCCCAAAGTT against Ficd belongs inactive: 1.15; to GGAACAGACAUAUAAGCAUTT against Blvra, inactive: 0.463.
For GCCUGACGAAGGUUUCUAUTT against Neo1 the value was inactive: -0.114.
To GCUCAUCUUAUCCUCUAAGTT against Cts7 belongs inactive: 0.391; to GCACUUACACUCUGUUUAATT against Fgf13, inactive: -0.623; to CCGGCAAUGACUGUGAAUCTT against Adamts7, inactive: -1.31.
As to GGCUCCACCAAAGCCUGUUTT against Rpf1, the z-score was inactive: 0.461.
For GGACAUCUACACCAUUUGGTT against Mplkip the value was active: -2.11; for GGUUCCAACAAUUGUAAAGTT against Chl1, inactive: -0.00378; for GGAAGGAUGUAAGUUGUCCTT against Suz12, inactive: 0.119.
For GGAUCUCUAUAUGUGGCUUTT against Brix1 the value was inactive: 0.0557.
For GGACAUCUGACAUCCAGUGTT against Pmvk the value was inactive: -0.659; for CCAUCCUAAAGAAUGUUAATT against Nf1, inactive: -1.27.
Consider CCUUAUUUGCUUAUCAUAGTT against Zfp367, for which the z-score is inactive: -1.4.
To GGAAGCCAAUGUCAAGUGCTT against Cbx1 belongs inactive: 1.09.
To CCAACUAAGAUGGAUCAAUTT against Commd2 belongs inactive: -0.883.
To GGAAUUUAAGCAGAAUGUGTT against Fcho1 belongs inactive: -1.32; to GGUUGUAGGAAUAAUUGAATT against Nup160, inactive: 0.688.
As to GGACAUCGAAGUCCAACACTT against Plekhm1, the z-score was inactive: -0.501.
For CCCAGGAAAAACCGUCAACTT against Zfp58 the value was inactive: 0.718; for “GCAACAAGCCUAGCUAAUCTT against A630038E17Rik”, inactive: 0.905; for GGGCAGUGCUUAUUAUGCUTT against Emc9, inactive: 0.555.
As to GGCAAUUCAUUGCAUGUUATT against Cdc42ep3, the z-score was inactive: -0.177.
With GGGACCAGAGGAAACAGAATT against Tnfsf13b, the z-score is active: -2.21.
For the sequence GGUGCUGACUGGUCAGAUGTT against Cers1, the z-score is inactive: -0.41.
To GGUGAUAGUACUGUCAGCCTT against Olfr1225 belongs inactive: -0.517.
To GGAACUCUCAGAUCUGAUUTT against Ppl belongs inactive: 0.969; to GUAUCCUUUUUAUAGCCUATT against Vmn1r44, inactive: 0.482; to GGGUGAUAAUGAGUCUACCTT against Pja1, inactive: -0.0641.
For GGAAAAAGAAUUGAGAGCUTT against Dhx15 the value was inactive: -1.79; for GCAAACAAGGUCCUAGUCUTT against Iqca, inactive: -1.5.
For the sequence GGGCAAUGGGUGAUCUAAUTT against Phactr1, the z-score is inactive: 0.00934.
For GCUCAUCUACCACCUCACUTT against Lrrc75b the value was inactive: 0.214.
For GGCCGUAUGUGAAUUUGAATT against Tnfaip6, the z-score was inactive: 0.714.
To GCCUCAUUUGAUCAAUGUCTT against Actr2 belongs inactive: 1.86; to GGCUUAAGGGAAUAUUUUCTT against Tmem14a, inactive: -0.75.
To GGAAACCAUCUUUGAACUUTT against Specc1l belongs inactive: 0.54; to GAAGAAAUGAAGACACAAGTT against Phgr1, inactive: 1.22.
For CCUCCUGAUAUCGAGUUCCTT against Dnm1 the value was inactive: -0.904.
In the case of GGAUCCAUCUGUUGGCAACTT against Slc5a2, the z-score was inactive: 0.891.
To GCUAUCUCUGCUAAUAAAGTT against Col6a1 belongs inactive: -0.203; to GCAUCGAUCUUGAGUUAGATT against Hebp1, inactive: 0.579; to GCAUUCAGCCAUCGUAAUCTT against Eef2kmt, inactive: -1.13.
For the sequence GCACAGUUCCAACUUCGUUTT against Ttll6, the z-score was inactive: -0.57.
For the sequence GCUCAAAUUGAGUCCUUAUTT against Ccdc122, the z-score was inactive: -0.548.
To GGAAAUACUAUGUUUGACUTT against Gja5 belongs inactive: -0.144; to AAAGGACUGCCUAAGACAATT against Vmn1r203, inactive: -0.921.
As to GGUAUUAUGAUCAGAUUUGTT against Pdcd6ip, the z-score is inactive: 1.83.

Source of the values: PubChem BioAssay AID1508600 (Functional Genomics Laboratory (NCATS/FGL), 2020).
